# Data: the supplement of paper PMC8728848
# Some of the results follow.
# B1: EULS2 M1 (Oryza sativa) (protein)
# chain: MVYCRANPNYAMTARNGAVVLAPANPKDEYQHWIKDMRWSTSIKDEEGYPAFALVNKATGQAIKHSLGQSHPVRLVPYNPEVMDESVLWTESRDVGNGFRCIRMVNNIYLNFDAFHGDKYHGGVRDGTDIVLWKLCEGDNQRWKIQPYYILEQKLISEEDLNSAVDHHHHHH
# Tests used:
# Assay in all cases: glycan array binding signal (z-score within array); higher = stronger binding
# Conditions in all cases: glycan notation: IUPAC condensed, linker removed
# [1] = biological target: Neu5Ac(a2-3)Gal(b1-4)GlcNAc
# In short: (§1)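 Arrays were curated from the Consortium for Functional Glycomics database, 3228 in total, and kept only where the protein sequence was available. Binding is expressed as a within-array Z-score. This score was averaged across arrays of the same protein sequence at different concentrations or buffers and across linkers, and negative values can be read as non-binding.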
# [2] = biological target: Neu5Ac(a2-3)Gal(b1-4)GlcNAc(b1-2)Man
# In short: as §1
# [3] = biological target: Neu5Ac(a2-3)Gal(b1-4)GlcNAc(b1-2)Man(a1-3)[GlcNAc(b1-4)][Neu5Ac(a2-3)Gal(b1-4)GlcNAc(b1-2)Man(a1-6)]Man(b1-4)GlcNAc(b1-4)GlcNAc
# In short: as §1
# [4] = biological target: Neu5Ac(a2-3)Gal(b1-4)GlcNAc(b1-2)Man(a1-3)[Neu5Ac(a2-3)Gal(b1-4)GlcNAc(b1-2)Man(a1-6)]Man(b1-4)GlcNAc(b1-4)GlcNAc
# In short: as §1
# [5] = biological target: Neu5Ac(a2-3)Gal(b1-4)GlcNAc(b1-2)Man(a1-3)[Neu5Ac(a2-3)Gal(b1-4)GlcNAc(b1-2)Man(a1-6)]Man(b1-4)GlcNAc(b1-4)[Fuc(a1-6)]GlcNAc
# In short: as §1
# [6] = biological target: Neu5Ac(a2-3)Gal(b1-4)GlcNAc(b1-2)Man(a1-3)[Neu5Ac(a2-6)Gal(b1-4)GlcNAc(b1-2)Man(a1-6)]Man(b1-4)GlcNAc(b1-4)GlcNAc
# In short: as §1
# [7] = biological target: Neu5Ac(a2-3)Gal(b1-4)GlcNAc(b1-2)[Neu5Ac(a2-3)Gal(b1-4)GlcNAc(b1-4)]Man(a1-3)[GlcNAc(b1-4)][Neu5Ac(a2-3)Gal(b1-4)GlcNAc(b1-2)[Neu5Ac(a2-3)Gal(b1-4)GlcNAc(b1-6)]Man(a1-6)]Man(b1-4)GlcNAc(b1-4)GlcNAc
# In short: as §1
# [8] = biological target: Neu5Ac(a2-3)Gal(b1-4)GlcNAc(b1-2)[Neu5Ac(a2-3)Gal(b1-4)GlcNAc(b1-4)]Man(a1-3)[GlcNAc(b1-4)][Neu5Ac(a2-3)Gal(b1-4)GlcNAc(b1-4)Man(a1-6)]Man(b1-4)GlcNAc(b1-4)GlcNAc
# In short: as §1
# [9] = biological target: Neu5Ac(a2-3)Gal(b1-4)GlcNAc(b1-2)[Neu5Ac(a2-3)Gal(b1-4)GlcNAc(b1-6)]Man(a1-6)[Neu5Ac(a2-3)Gal(b1-4)GlcNAc(b1-2)Man(a1-3)]Man(b1-4)GlcNAc(b1-4)GlcNAc
# In short: as §1
# [10] = biological target: Neu5Ac(a2-3)Gal(b1-4)GlcNAc(b1-2)[Neu5Ac(a2-3)Gal(b1-4)GlcNAc(b1-6)]Man(a1-6)[Neu5Ac(a2-3)Gal(b1-4)GlcNAc(b1-2)Man(a1-3)][GlcNAc(b1-4)]Man(b1-4)GlcNAc(b1-4)GlcNAc
# In short: as §1
# [11] = biological target: Neu5Ac(a2-3)Gal(b1-4)GlcNAc(b1-3)Gal
# In short: as §1
# [12] = biological target: Neu5Ac(a2-3)Gal(b1-4)GlcNAc(b1-3)Gal(b1-3)GlcNAc
# In short: as §1
# [13] = biological target: Neu5Ac(a2-3)Gal(b1-4)GlcNAc(b1-3)Gal(b1-4)GlcNAc
# In short: as §1
# [14] = biological target: Neu5Ac(a2-3)Gal(b1-4)GlcNAc(b1-3)Gal(b1-4)GlcNAc(b1-2)Man(a1-3)[Neu5Ac(a2-3)Gal(b1-4)GlcNAc(b1-3)Gal(b1-4)GlcNAc(b1-2)Man(a1-6)]Man(b1-4)GlcNAc(b1-4)GlcNAc
# In short: as §1
# [15] = biological target: Neu5Ac(a2-3)Gal(b1-4)GlcNAc(b1-3)Gal(b1-4)GlcNAc(b1-3)Gal(b1-4)GlcNAc
# In short: as §1
# [16] = biological target: Neu5Ac(a2-3)Gal(b1-4)GlcNAc(b1-3)Gal(b1-4)GlcNAc(b1-3)Gal(b1-4)GlcNAc(b1-2)Man(a1-3)[Neu5Ac(a2-3)Gal(b1-4)GlcNAc(b1-3)Gal(b1-4)GlcNAc(b1-3)Gal(b1-4)GlcNAc(b1-2)Man(a1-6)]GalNAc
# In short: as §1
# [17] = biological target: Neu5Ac(a2-3)Gal(b1-4)GlcNAc(b1-3)Gal(b1-4)GlcNAc(b1-3)GalNAc
# In short: as §1
# [18] = biological target: Neu5Ac(a2-3)Gal(b1-4)GlcNAc(b1-3)Gal(b1-4)GlcNAc(b1-3)[Neu5Ac(a2-3)Gal(b1-4)GlcNAc(b1-3)Gal(b1-4)GlcNAc(b1-6)]GalNAc
# In short: as §1
# [19] = biological target: Neu5Ac(a2-3)Gal(b1-4)GlcNAc(b1-3)Gal(b1-4)GlcNAc(b1-6)[Gal(b1-3)]GalNAc
# In short: as §1
# [20] = biological target: Neu5Ac(a2-3)Gal(b1-4)GlcNAc(b1-3)Gal(b1-4)[Fuc(a1-3)]GlcNAc
# In short: as §1
# [21] = biological target: Neu5Ac(a2-3)Gal(b1-4)GlcNAc(b1-3)GalNAc
# In short: as §1
# [22] = biological target: Neu5Ac(a2-3)Gal(b1-4)GlcNAc(b1-3)[Neu5Ac(a2-3)Gal(b1-4)GlcNAc(b1-6)]GalNAc
# In short: as §1
# [23] = biological target: Neu5Ac(a2-3)Gal(b1-4)GlcNAc(b1-6)GalNAc
# In short: as §1
# [24] = biological target: Neu5Ac(a2-3)Gal(b1-4)GlcNAc(b1-6)[Gal(b1-3)]GalNAc
# In short: as §1
# [25] = biological target: Neu5Ac(a2-3)Gal(b1-4)GlcNAc(b1-6)[Neu5Ac(a2-3)Gal(b1-3)]GalNAc
# In short: as §1
# [26] = biological target: Neu5Ac(a2-3)Gal(b1-4)GlcNAc6S
# In short: as §1
# [27] = biological target: Neu5Ac(a2-3)Gal(b1-4)[Fuc(a1-3)]GlcNAc
# In short: as §1
# [28] = biological target: Neu5Ac(a2-3)Gal(b1-4)[Fuc(a1-3)]GlcNAc(b1-2)Man
# In short: as §1
# [29] = biological target: Neu5Ac(a2-3)Gal(b1-4)[Fuc(a1-3)]GlcNAc(b1-3)Gal
# In short: as §1
# [30] = biological target: Neu5Ac(a2-3)Gal(b1-4)[Fuc(a1-3)]GlcNAc(b1-3)Gal(b1-4)GlcNAc
# In short: as §1
# [31] = biological target: Neu5Ac(a2-3)Gal(b1-4)[Fuc(a1-3)]GlcNAc(b1-3)Gal(b1-4)[Fuc(a1-3)]GlcNAc(b1-3)Gal(b1-4)[Fuc(a1-3)]GlcNAc
# In short: as §1
# [32] = biological target: Neu5Ac(a2-3)Gal(b1-4)[Fuc(a1-3)]GlcNAc(b1-3)GalNAc
# In short: as §1
# [33] = biological target: Neu5Ac(a2-3)Gal(b1-4)[Fuc(a1-3)]GlcNAc(b1-6)[Gal(b1-3)]GalNAc
# In short: as §1
# [34] = biological target: Neu5Ac(a2-3)Gal(b1-4)[Fuc(a1-3)]GlcNAc(b1-6)[Neu5Ac(a2-3)Gal(b1-3)]GalNAc
# In short: as §1
# [35] = biological target: Neu5Ac(a2-3)Gal(b1-4)[Fuc(a1-3)]GlcNAc6S
# In short: as §1
# [36] = biological target: Neu5Ac(a2-3)Gal6S(b1-4)GlcNAc
# In short: as §1
# [37] = biological target: Neu5Ac(a2-3)Gal6S(b1-4)[Fuc(a1-3)]GlcNAc
# In short: as §1
# Neu5Ac(a2-3)GalNAc = biological target: Neu5Ac(a2-3)GalNAc
# In short: as §1
binder,measurement,setting,value
B1,glycan array binding signal (z-score),[1],-0.548
same,glycan array binding signal (z-score),[2],0.285
same,glycan array binding signal (z-score),[3],0.176
same,glycan array binding signal (z-score),[4],-2.21
same,glycan array binding signal (z-score),[5],0.573
same,glycan array binding signal (z-score),[6],-0.38
same,glycan array binding signal (z-score),[7],-0.833
same,glycan array binding signal (z-score),[8],-0.368
same,glycan array binding signal (z-score),[9],0.399
same,glycan array binding signal (z-score),[10],-0.305
same,glycan array binding signal (z-score),[11],-0.337
same,glycan array binding signal (z-score),[12],-0.209
same,glycan array binding signal (z-score),[13],-0.197
same,glycan array binding signal (z-score),[14],0.426
same,glycan array binding signal (z-score),[15],-0.07
same,glycan array binding signal (z-score),[16],1.33
same,glycan array binding signal (z-score),[17],0.072
same,glycan array binding signal (z-score),[18],0.135
same,glycan array binding signal (z-score),[19],-0.334
same,glycan array binding signal (z-score),[20],-0.885
same,glycan array binding signal (z-score),[21],-0.009
same,glycan array binding signal (z-score),[22],0.003
same,glycan array binding signal (z-score),[23],0.699
same,glycan array binding signal (z-score),[24],-0.262
same,glycan array binding signal (z-score),[25],-0.674
same,glycan array binding signal (z-score),[26],-0.196
same,glycan array binding signal (z-score),[27],0.096
same,glycan array binding signal (z-score),[28],-0.036
same,glycan array binding signal (z-score),[29],-0.835
same,glycan array binding signal (z-score),[30],-0.516
same,glycan array binding signal (z-score),[31],0.497
same,glycan array binding signal (z-score),[32],0.991
same,glycan array binding signal (z-score),[33],-1.01
same,glycan array binding signal (z-score),[34],0.966
same,glycan array binding signal (z-score),[35],-0.034
same,glycan array binding signal (z-score),[36],-0.682
same,glycan array binding signal (z-score),[37],-0.027
same,glycan array binding signal (z-score),Neu5Ac(a2-3)GalNAc,-0.887

# Fetched one by one from the list above, two records:
binder,measurement,setting,value
B1,glycan array binding signal (z-score),[23],0.699
same,glycan array binding signal (z-score),[6],-0.38
